{"source": "patent EP0099286B1", "about": "“Compound containing a tripeptide sequence of the threonyl-lysyl proline-type, or similar, useful as an anti-inflammatory, anti-allergic or antalgesic agent” (INSTITUT PASTEUR DE LILLE, priority 1982, dated 1987)", "key": {"macrophages [1]": {"system": "macrophages", "test": "Inhibition of macrophage activity (general)", "format": "cell-based", "text": "Selon des tests effectués par les méthodes décrites dans l'article cité plus haut de \"Immunology Letters\", la L'thréonyl-L-lysyl-L-proline s'est révélée atoxique pour les cellules et inhibitrice non seulement de la libération, mais également de la synthèse de la β-glucuronidase lysosomiale. En présence du peptide, le taux intracellulaire de cette enzyme décroît également. La L-thréonyl-L-lysyl-L-proline inhibe également la stimulation des macrophages de patients allergiques par l'allergène correspondant, lorsqu'ils ont été préincubés en présence du peptide. Cette dépression est très significative (50 à 70%) dans des essais in vitro. La thréonyl-L-lysyl-L-proline présente un pouvoir inhibiteur d'environ 60% aux concentrations de 200 nanogrammes à 20 picogrammes, ce pouvoir inhibiteur étant même de 50% à 2 picogrammes. Cette inhibition par le peptide se manifeste aussi dans des essais d'activation de macrophages par des réactions (IgE)-(Anti-IgE), que ces macrophages aient été incubés auparavant in vitro en présence du peptide, ou obtenus à partir d'animaux auxquels le peptide avait antérieurement été administré par voie intraveineuse (chez le rat, à des doses de 10 µg, trois heures avant le prélèvement des cellules). La libération d'anion superoxyde par les macrophages de rats est également inhibée par le tripeptide en question. […]"}, "macrophages [2]": {"system": "macrophages", "details": "macrophages challenged simultaneously by an antigen and the peptide; cited from earlier work"}}, "note": "Not every detail of the peptide structures is certain; ends, links or a residue may be inferred. Residues, ends and D or L forms follow the SMILES beside them.", "data": [{"smiles": "C[C@@H](O)[C@H](N)C(=O)N[C@@H](CCCCN)C(=O)N1CCC[C@H]1C(=O)N[C@@H](CCCNC(=N)N)C(=O)O", "note": "[tuftsine, Thr-Lys-Pro-Arg, reference compound] (H-TKPR-OH)", "values": [{"measurement": "activité à l'égard de l'activité des macrophages", "setting": "macrophages [1]", "value": "activité stimulante"}, {"measurement": "propriété d'activer les macrophages", "setting": "macrophages [2]", "value": "activer les macrophages"}]}]}
